pIC50: −log10 of the molar value. The match of structure and compound is tentative.
Columns and labels:
[1] = target: MGL in rat brain homogenate (Rattus norvegicus, UniProt Q8R431); experiment: 2-AG accumulation assay in rat brain homogenate; type: biochemical; settings: compound 1 μM, 2-AG accumulation as percent of vehicle
[2] = target: purified wild type MGL (wt-MGLL 6H-11-313) (Homo sapiens, UniProt Q99685)

Amino acid sequences for entries named in this document (tags omitted).
UniProt Q8R431, whole entry: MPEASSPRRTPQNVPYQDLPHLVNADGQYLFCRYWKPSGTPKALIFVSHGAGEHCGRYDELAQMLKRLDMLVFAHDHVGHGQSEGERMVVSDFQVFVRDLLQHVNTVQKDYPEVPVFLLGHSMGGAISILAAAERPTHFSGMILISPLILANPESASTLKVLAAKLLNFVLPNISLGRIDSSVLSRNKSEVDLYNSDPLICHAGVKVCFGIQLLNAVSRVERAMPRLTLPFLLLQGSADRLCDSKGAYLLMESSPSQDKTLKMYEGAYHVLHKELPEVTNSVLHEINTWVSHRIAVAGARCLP
UniProt Q99685, whole entry: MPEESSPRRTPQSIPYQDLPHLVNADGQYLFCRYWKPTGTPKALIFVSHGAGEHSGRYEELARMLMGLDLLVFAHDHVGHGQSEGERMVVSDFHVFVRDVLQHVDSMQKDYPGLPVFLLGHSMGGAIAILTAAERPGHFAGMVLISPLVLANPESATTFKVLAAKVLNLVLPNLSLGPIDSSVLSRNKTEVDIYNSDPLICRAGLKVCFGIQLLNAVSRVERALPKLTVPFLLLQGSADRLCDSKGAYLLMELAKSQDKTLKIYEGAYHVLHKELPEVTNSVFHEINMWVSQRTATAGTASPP

For O=C(c1ccc(Cc2ccc(C(F)(F)F)cc2)cc1)N1CCN(C2CN(C(=O)c3cscn3)C2)CC1, the “Rat Brain 2AG % VehCntrl (%) @1 μM” value [1] was 458% and the pIC50 [2] was > 8.30.

Source: patent publication US8691805B2, “Azetidinyl diamides as monoacylglycerol lipase inhibitors” (Janssen Pharmaceutica NV, priority 2009, dated 2014)
